Results deposited as PubChem BioAssay AID1259308 (NCATS, 2017)

Assay: 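Knock-downs that increase output of a recombinant reporter protein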 (primary screen)
Cells: human HEK293 embryonic kidney cells stably expressing firefly luciferase (HEK-CMV-Luc2-Hygro)
Knock-down reagent: single siRNA against human genes, 0.8 pmol siRNA per well
Duration: 72 h
Measurement: 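Luciferase light (ONE-Glo) measured on one replicate plate set and viability (CellTiter-Glo) on the other, scaled to a negative control siRNA, with robust z-scores and luciferase per cell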
Direction: total luciferase, z-score and total luciferase, % of control: higher = more reporter protein produced
Rule for the call: 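An siRNA counts as active if its total luciferase robust z-score exceeds 3; genes with two or more such siRNAs out of three were retested with fresh siRNAs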
Calls: active = raised luciferase; inactive = no rise
Here is one part, drawn at random, of about 59,000 deposited reagents. About 1,510 of them (2.6%) were called active. 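Calls use total luciferase alone and ignore viability, so some active siRNAs may act by altering cell number.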 The numbers tell different reagents against one gene apart. Further read-outs or replicates are left out here.

CCDC120 (coiled-coil domain containing 120) #1
- total luciferase, z-score: 0.531
- total luciferase, % of control: 92.4
- Outcome: inactive

CCDC120 (coiled-coil domain containing 120) #2
- total luciferase, z-score: -0.832
- total luciferase, % of control: 65.3
- Outcome: inactive

CCDC120 (coiled-coil domain containing 120) #3
- total luciferase, z-score: -0.929
- total luciferase, % of control: 63.4
- Outcome: inactive

DGKB (diacylglycerol kinase beta) #1
- total luciferase, z-score: -0.298
- total luciferase, % of control: 76
- Outcome: inactive

DGKB (diacylglycerol kinase beta) #2
- total luciferase, z-score: -0.42
- total luciferase, % of control: 73.5
- Outcome: inactive

DGKB (diacylglycerol kinase beta) #3
- total luciferase, z-score: 0.814
- total luciferase, % of control: 98.1
- Outcome: inactive

MTMR8 (myotubularin related protein 8) #1
- total luciferase, z-score: 0.943
- total luciferase, % of control: 101
- Outcome: inactive

MTMR8 (myotubularin related protein 8) #2
- total luciferase, z-score: -0.253
- total luciferase, % of control: 76.9
- Outcome: inactive

MTMR8 (myotubularin related protein 8) #3
- total luciferase, z-score: 0.702
- total luciferase, % of control: 95.8
- Outcome: inactive

SNAI3 (snail family transcriptional repressor 3) #1
- total luciferase, z-score: 0.52
- total luciferase, % of control: 92.2
- Outcome: inactive

SNAI3 (snail family transcriptional repressor 3) #2
- total luciferase, z-score: 0.286
- total luciferase, % of control: 87.6
- Outcome: inactive

SNAI3 (snail family transcriptional repressor 3) #3
- total luciferase, z-score: -1.49
- total luciferase, % of control: 52.3
- Outcome: inactive
